Test results reported in the supplement of paper PMC6411743.
± gives the standard deviation of the averaged measurements. Only a part is listed here, and it is no random draw. Most entries show no effect beyond the scatter of the controls.

Sequences of proteins named here, by UniProt entry; tags and fusion partners are left off. A change or cut given only in a name is not applied to a line headed by its entry.
UniProt A9UHW6: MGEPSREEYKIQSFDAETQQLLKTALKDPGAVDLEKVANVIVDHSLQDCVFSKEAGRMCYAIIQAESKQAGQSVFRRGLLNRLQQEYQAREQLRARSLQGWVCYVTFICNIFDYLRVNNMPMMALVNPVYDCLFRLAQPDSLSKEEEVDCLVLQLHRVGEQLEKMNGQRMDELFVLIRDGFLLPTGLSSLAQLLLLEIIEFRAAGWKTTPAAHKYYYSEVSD
UniProt A2RU67: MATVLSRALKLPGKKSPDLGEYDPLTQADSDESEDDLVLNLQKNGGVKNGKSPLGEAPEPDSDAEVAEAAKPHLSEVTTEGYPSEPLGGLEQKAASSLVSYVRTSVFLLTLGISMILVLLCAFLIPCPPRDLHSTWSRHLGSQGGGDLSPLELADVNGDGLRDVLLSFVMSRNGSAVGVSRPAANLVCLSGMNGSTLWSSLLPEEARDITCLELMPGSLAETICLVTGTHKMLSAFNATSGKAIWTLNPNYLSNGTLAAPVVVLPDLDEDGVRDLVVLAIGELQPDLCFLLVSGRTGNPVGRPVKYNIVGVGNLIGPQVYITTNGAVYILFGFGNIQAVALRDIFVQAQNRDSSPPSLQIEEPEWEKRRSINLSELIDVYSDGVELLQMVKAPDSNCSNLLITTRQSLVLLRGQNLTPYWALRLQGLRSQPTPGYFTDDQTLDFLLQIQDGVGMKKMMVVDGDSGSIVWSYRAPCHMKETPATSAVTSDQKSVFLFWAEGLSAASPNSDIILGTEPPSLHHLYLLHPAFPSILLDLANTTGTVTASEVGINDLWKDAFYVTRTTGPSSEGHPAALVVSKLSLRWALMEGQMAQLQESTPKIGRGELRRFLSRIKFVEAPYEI
UniProt Q86WB0: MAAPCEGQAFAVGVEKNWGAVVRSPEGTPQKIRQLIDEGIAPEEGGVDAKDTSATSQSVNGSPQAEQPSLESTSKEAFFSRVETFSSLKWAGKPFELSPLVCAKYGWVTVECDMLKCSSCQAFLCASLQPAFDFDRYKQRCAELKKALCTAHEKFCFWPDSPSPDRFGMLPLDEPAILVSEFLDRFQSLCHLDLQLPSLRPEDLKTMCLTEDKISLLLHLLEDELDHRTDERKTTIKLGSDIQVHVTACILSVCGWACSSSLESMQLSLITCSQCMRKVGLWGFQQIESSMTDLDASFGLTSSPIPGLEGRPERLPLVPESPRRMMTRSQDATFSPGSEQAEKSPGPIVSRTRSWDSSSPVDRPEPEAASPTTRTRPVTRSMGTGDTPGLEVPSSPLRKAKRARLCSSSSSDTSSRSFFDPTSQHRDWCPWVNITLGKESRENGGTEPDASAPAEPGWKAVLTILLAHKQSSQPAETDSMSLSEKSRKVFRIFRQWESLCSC
UniProt P19484: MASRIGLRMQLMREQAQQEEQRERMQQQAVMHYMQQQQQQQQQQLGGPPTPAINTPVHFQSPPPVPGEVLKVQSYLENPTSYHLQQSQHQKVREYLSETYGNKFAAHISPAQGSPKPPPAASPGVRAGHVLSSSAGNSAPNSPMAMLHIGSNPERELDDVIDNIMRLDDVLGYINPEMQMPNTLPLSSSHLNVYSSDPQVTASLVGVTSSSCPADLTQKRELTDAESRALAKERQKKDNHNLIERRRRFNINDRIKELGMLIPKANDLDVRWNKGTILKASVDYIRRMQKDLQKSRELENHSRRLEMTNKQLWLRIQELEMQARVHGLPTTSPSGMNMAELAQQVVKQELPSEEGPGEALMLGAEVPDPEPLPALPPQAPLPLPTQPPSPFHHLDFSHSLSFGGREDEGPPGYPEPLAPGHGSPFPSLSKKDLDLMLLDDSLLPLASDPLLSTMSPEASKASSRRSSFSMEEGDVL
UniProt O15304: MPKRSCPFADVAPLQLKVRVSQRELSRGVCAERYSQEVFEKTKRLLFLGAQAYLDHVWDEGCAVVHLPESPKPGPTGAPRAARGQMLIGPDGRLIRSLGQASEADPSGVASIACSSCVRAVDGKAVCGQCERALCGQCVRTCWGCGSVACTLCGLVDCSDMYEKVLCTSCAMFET
UniProt P42892: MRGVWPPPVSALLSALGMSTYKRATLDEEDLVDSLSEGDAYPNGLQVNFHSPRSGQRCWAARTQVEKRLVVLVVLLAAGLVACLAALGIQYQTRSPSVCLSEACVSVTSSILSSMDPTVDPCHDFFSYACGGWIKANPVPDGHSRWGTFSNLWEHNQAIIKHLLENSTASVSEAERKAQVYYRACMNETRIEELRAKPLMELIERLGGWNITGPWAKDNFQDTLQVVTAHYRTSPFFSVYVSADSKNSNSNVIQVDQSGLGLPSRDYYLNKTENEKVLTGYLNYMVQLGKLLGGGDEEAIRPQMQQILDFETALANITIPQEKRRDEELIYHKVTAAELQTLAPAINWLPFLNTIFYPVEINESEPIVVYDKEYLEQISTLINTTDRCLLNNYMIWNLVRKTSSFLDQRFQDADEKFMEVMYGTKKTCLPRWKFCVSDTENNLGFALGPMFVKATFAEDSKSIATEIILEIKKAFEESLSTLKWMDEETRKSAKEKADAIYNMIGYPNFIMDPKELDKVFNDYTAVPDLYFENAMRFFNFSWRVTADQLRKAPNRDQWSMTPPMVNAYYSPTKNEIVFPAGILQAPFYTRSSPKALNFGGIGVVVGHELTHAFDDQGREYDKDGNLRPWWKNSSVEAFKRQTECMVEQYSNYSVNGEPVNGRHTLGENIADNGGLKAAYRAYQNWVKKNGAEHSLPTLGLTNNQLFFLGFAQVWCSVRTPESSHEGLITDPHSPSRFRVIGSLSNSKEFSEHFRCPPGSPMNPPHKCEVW
UniProt Q9HB19: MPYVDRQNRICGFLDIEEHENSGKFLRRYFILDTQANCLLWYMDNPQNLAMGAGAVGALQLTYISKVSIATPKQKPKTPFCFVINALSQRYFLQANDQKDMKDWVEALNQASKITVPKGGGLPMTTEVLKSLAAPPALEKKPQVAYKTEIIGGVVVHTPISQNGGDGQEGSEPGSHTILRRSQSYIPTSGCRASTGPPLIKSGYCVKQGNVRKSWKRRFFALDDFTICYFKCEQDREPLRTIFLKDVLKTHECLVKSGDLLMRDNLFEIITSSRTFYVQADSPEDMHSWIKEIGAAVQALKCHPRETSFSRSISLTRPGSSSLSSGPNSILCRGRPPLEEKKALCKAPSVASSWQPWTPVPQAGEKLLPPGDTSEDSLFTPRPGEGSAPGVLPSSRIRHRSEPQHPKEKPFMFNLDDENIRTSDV
UniProt P07602: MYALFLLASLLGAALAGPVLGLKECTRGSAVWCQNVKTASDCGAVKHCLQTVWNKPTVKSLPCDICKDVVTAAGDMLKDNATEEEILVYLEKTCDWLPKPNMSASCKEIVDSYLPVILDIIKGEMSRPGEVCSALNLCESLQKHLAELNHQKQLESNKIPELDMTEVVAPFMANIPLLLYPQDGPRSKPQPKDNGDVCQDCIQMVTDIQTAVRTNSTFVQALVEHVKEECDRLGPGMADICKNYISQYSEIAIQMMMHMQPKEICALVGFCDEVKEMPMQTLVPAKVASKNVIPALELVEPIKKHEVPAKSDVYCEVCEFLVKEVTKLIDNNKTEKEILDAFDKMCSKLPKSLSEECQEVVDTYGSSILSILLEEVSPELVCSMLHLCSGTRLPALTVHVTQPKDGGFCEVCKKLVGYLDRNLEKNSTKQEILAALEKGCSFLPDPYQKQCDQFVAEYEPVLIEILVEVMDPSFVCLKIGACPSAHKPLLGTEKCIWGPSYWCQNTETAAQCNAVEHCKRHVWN
UniProt Q9UFF9, whole entry: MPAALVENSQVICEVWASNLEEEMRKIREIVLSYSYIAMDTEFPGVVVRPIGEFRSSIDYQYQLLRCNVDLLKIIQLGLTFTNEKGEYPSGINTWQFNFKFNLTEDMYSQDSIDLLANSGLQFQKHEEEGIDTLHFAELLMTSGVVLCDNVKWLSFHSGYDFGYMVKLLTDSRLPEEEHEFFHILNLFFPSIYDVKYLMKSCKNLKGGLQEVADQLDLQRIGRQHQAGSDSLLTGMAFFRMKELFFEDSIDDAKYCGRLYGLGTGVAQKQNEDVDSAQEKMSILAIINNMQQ
UniProt P18859: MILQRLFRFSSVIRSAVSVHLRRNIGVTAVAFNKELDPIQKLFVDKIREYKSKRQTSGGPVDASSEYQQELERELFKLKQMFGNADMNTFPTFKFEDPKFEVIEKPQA
UniProt Q8TD31: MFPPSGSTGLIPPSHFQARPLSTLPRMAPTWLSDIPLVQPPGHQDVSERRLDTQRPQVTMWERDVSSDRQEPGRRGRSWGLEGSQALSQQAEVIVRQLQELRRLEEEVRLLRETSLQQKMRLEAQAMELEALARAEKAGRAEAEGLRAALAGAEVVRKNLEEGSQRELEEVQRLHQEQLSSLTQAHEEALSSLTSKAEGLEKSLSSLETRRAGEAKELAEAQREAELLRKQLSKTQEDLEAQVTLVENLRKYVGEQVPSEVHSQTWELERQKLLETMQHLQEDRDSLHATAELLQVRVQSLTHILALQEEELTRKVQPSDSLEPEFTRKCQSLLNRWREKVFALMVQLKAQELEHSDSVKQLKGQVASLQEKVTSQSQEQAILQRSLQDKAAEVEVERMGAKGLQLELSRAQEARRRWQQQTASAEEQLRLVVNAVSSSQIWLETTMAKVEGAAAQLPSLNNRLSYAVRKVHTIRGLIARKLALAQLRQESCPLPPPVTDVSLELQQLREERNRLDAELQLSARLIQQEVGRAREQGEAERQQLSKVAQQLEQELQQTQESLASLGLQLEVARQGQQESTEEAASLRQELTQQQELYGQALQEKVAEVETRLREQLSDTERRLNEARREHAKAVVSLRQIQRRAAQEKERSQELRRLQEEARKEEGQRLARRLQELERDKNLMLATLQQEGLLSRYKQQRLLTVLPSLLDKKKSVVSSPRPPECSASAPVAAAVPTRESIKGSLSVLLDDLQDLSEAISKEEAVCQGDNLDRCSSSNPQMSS
UniProt A4D1P6: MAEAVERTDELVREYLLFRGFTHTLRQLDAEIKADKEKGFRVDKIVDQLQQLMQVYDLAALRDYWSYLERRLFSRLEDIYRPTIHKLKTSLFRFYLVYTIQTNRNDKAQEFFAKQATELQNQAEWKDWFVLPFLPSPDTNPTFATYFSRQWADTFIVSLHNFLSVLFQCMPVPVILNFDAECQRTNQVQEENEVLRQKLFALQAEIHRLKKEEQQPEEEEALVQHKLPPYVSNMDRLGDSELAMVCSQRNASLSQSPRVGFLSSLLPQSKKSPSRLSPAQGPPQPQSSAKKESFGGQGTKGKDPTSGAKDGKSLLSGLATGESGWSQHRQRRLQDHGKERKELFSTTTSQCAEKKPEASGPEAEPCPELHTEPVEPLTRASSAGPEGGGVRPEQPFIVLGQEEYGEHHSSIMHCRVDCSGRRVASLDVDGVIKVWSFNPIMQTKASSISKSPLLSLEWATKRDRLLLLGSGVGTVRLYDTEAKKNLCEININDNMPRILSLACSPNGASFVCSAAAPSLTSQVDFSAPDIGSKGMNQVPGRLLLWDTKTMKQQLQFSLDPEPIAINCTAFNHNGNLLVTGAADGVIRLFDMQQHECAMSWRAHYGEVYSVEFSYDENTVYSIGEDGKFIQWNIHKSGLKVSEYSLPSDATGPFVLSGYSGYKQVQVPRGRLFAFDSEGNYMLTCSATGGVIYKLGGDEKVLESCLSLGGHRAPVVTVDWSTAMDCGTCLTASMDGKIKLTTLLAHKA
UniProt Q01844: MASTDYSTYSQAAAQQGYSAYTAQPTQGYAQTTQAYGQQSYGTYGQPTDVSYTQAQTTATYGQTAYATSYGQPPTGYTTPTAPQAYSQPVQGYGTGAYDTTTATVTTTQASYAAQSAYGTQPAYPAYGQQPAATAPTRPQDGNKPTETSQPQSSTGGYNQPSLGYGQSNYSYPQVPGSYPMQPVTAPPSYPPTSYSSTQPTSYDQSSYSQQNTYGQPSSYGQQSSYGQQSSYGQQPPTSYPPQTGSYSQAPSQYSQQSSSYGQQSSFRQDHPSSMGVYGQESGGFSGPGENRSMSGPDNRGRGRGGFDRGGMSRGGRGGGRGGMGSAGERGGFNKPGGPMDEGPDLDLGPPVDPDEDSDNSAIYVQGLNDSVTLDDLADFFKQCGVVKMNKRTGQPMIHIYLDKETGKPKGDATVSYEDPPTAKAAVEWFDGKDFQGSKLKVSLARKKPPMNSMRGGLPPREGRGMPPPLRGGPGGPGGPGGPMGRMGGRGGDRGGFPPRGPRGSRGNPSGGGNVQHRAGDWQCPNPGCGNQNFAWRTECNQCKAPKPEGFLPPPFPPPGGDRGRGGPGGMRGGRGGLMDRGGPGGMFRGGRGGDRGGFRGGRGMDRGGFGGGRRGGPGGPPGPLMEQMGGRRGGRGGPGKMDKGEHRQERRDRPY

Compound: Nc1ncnc2c1ncn2[C@@H]1O[C@H](COP(=O)(O)OP(=O)(O)OP(=O)(O)O)[C@@H](O)[C@H]1O [adenosine triphosphate]
Assay: NP40-soluble protein abundance relative to vehicle (solubility fold change) (ratio); higher = more soluble protein in presence of ATP
Procedure, shortened: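 Jurkat crude lysate prepared with a Dounce homogeniser was treated at eight concentrations spanning 0.1 to 10 mM, 10 min at room temperature then 3 min at 37 °C. Solubilisation with 0.8% NP40 and benzonase and ultracentrifugation preceded TMT labelling of the supernatant for LC-MS/MS. Fold change against the detergent-processed vehicle was determined per replicate from vsn-normalised intensities, across three independent experiments.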

Target	NP40-soluble protein abundance (concentration: 0.1mM)	NP40-soluble protein abundance (concentration: 0.5mM)
LIPT2 (UniProt A6NK58)	1.01 ± 0.069	0.934 ± 0.12
D6RD47 and related entries (UniProt P62266)	0.915 ± 0.062	0.932 ± 0.071
A9X3U0 and related entries (UniProt Q96GF1)	1.03 ± 0.16	0.93 ± 0.057
C9JPC9 and related entries (UniProt Q9H9J4)	0.984 ± 0.06	0.939 ± 0.05
B4DR80 and related entries (UniProt Q9Y6E0)	1.04 ± 0.068	1.01 ± 0.039
UniProt A9UHW6 and related entries	0.923 ± 0.091	0.897 ± 0.11
A0A0J9YXJ0|E9PC62 and related entries (UniProt O95319)	0.989 ± 0.029	0.989 ± 0.048
UniProt A6NHR9 and related entries	1.06 ± 0.066	1.06 ± 0.077
UniProt A2RU67	0.992 ± 0.025	0.946 ± 0.054
A6NMQ3 and related entries (UniProt O43768)	1.03 ± 0.16	0.921 ± 0.046
C9J0I9 and related entries (UniProt Q86WB0)	1.02 ± 0.024	1.03 ± 0.013
A0A5E8 and related entries (UniProt Q99501)	0.872 ± 0.084	0.98 ± 0.01
A8MTY9 and related entries (UniProt O14972)	1.11 ± 0.13	1.07 ± 0.04
C9JLU1 and related entries (UniProt P52434)	1.03 ± 0.12	1.02 ± 0.1
A8MUS3 and related entries (UniProt P62750)	0.904 ± 0.1	0.887 ± 0.059
A2A2F0 and related entries (UniProt Q86X10)	1.042 ± 0.0072	1.03 ± 0.015
B4DIG0 and related entries (UniProt P30305)	1.02 ± 0.036	1.01 ± 0.056
B0QYS6 and related entries (UniProt P19484)	1.02 ± 0.021	0.888 ± 0.11
C9J0Q5 and related entries (UniProt Q9Y618)	0.979 ± 0.06	0.968 ± 0.053
B7ZBM3 and related entries (UniProt Q8IVH2)	0.902 ± 0.034	0.929 ± 0.082
A0A0U1RRC9|P57075 and related entries (UniProt P57075)	0.971 ± 0.046	0.933 ± 0.04
HMX3 (UniProt A6NHT5)	0.878 ± 0.12	0.765 ± 0.056

Target	NP40-soluble protein abundance (concentration: 0.1mM)	NP40-soluble protein abundance (concentration: 0.5mM)
B4DTY2 and related entries (UniProt O15304)	1.08 ± 0.045	1.02 ± 0.069
B4DKB2 and related entries (UniProt P42892)	0.979 ± 0.048	0.935 ± 0.046
A0A0J9YXM6|I3L1G2 and related entries (UniProt Q562E7)	0.987 ± 0.12	0.919 ± 0.17
A8K727 and related entries (UniProt Q9HB19)	1.03 ± 0.043	1.08 ± 0.031
A6NCE7 and related entries (UniProt Q9GZQ8+H3BTL1+A6NCE7)	0.976 ± 0.038	0.993 ± 0.052
D6RDN9 and related entries (UniProt Q15119)	1.02 ± 0.073	1.06 ± 0.025
C9JIZ6 and related entries (UniProt P07602)	0.907 ± 0.063	0.855 ± 0.11
A6NFX8 and related entries (UniProt Q9UKK9)	1.07 ± 0.083	1.05 ± 0.026
D6RER5 and related entries (UniProt Q9NVA2)	1.03 ± 0.037	1.08 ± 0.078
A2A2Q9 and related entries (UniProt Q9Y312)	0.957 ± 0.058	0.961 ± 0.057
B7Z9U0 and related entries (UniProt Q9UFF9)	1.04 ± 0.081	1.03 ± 0.1
A8MUH2 and related entries (UniProt P18859)	0.984 ± 0.17	0.884 ± 0.063
A0A140T9T7|Q03518 (UniProt Q03518)	1.01 ± 0.06	1.03 ± 0.091
A0A0G2JJ47|A0A0G2JP87|A2ABH1 and related entries (UniProt Q8TD31)	1.06 ± 0.18	1.09 ± 0.18
UniProt A4D1P6 and related entries	0.947 ± 0.12	0.971 ± 0.11
A0A0U1RRB6|Q9Y2D4 and related entries (UniProt Q9Y2D4)	1.01 ± 0.06	1.01 ± 0.069
A0A0U1RQK7 (UniProt O43432)	1.01 ± 0.012	1.05 ± 0.046
B1AJU2 and related entries (UniProt Q9Y228)	0.886 ± 0.13	0.857 ± 0.15
B0QYK0 and related entries (UniProt Q01844)	0.971 ± 0.0099	0.986 ± 0.029
B4DZS0 and related entries (UniProt O76075)	1.05 ± 0.045	1.05 ± 0.027
UniProt A3KN83 and related entries	0.974 ± 0.031	0.998 ± 0.043
C9JNZ0 and related entries (UniProt Q96IW7)	1.02 ± 0.011	1.09 ± 0.07

Record cards, from the list above. Order of values: NP40-soluble protein abundance (concentration: 0.1mM)	NP40-soluble protein abundance (concentration: 0.5mM)
D6RER5 and related entries (UniProt Q9NVA2) as listed: 1.03 ± 0.037	1.08 ± 0.078
C9JIZ6 and related entries (UniProt P07602) as listed: 0.907 ± 0.063	0.855 ± 0.11
